# Results published in the supplement of paper PMC12067093, “Discovery and optimisation of a covalent ligand for TRIM25 and its application to targeted protein ubiquitination” (Chemical Science, 2025).
# The chains behind the UniProt entries cited, without tags or fusion partners. Where a name states a change or a piece, a line headed by the entry shows the natural chain unless it says otherwise.
# UniProt Q13129: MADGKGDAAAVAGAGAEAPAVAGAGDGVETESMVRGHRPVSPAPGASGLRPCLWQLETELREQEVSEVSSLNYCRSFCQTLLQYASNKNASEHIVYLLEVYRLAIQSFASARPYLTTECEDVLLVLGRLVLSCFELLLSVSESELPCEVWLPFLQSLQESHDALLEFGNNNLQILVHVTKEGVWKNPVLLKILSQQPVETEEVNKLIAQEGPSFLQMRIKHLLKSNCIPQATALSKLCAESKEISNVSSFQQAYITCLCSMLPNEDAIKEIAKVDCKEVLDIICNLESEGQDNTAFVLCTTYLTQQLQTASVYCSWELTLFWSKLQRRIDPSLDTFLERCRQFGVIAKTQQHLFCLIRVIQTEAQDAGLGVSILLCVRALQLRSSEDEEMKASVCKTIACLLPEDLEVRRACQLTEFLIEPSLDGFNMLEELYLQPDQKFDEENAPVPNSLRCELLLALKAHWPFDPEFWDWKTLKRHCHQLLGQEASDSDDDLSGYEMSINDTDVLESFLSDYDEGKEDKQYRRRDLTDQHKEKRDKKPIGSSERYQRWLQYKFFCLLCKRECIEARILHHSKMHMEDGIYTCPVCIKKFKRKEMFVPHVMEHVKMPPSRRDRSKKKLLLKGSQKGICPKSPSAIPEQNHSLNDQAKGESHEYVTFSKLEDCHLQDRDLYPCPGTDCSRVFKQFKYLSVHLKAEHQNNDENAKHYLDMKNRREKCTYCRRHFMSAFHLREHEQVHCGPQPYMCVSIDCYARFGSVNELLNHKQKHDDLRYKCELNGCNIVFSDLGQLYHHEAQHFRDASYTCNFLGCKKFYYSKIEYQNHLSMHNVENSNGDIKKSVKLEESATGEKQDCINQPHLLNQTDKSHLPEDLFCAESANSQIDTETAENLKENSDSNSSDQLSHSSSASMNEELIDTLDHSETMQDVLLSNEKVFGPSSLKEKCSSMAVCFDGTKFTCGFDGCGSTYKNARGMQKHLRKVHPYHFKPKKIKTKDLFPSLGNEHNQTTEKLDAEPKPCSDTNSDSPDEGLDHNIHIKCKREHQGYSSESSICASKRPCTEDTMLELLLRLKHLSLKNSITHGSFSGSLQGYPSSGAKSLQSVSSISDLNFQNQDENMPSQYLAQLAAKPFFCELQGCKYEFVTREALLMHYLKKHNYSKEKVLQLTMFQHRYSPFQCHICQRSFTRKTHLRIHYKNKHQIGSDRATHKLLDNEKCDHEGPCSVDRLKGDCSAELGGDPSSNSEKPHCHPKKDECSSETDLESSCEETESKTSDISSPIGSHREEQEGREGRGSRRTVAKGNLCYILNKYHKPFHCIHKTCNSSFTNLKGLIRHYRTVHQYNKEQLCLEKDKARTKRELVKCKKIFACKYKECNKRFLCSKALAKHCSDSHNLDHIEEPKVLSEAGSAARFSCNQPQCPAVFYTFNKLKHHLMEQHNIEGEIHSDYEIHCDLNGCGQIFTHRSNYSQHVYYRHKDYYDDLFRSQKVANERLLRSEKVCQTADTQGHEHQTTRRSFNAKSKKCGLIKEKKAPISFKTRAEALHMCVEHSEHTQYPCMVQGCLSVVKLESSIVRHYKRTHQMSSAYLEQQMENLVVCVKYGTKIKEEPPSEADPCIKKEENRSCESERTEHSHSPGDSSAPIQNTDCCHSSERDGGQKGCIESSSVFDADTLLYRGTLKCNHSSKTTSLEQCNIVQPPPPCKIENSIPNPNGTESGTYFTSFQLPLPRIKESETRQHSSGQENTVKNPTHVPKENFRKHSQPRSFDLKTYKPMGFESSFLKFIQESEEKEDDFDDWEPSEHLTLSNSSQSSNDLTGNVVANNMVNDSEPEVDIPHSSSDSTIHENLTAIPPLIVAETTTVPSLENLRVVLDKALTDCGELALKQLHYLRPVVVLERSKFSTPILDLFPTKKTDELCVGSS
# UniProt O43665: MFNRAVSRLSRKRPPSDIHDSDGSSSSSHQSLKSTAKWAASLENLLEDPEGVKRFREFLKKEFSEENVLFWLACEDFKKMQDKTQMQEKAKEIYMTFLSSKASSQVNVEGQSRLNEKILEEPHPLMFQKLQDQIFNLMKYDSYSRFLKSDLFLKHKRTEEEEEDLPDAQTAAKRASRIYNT
# UniProt O43353, whole entry, looked up: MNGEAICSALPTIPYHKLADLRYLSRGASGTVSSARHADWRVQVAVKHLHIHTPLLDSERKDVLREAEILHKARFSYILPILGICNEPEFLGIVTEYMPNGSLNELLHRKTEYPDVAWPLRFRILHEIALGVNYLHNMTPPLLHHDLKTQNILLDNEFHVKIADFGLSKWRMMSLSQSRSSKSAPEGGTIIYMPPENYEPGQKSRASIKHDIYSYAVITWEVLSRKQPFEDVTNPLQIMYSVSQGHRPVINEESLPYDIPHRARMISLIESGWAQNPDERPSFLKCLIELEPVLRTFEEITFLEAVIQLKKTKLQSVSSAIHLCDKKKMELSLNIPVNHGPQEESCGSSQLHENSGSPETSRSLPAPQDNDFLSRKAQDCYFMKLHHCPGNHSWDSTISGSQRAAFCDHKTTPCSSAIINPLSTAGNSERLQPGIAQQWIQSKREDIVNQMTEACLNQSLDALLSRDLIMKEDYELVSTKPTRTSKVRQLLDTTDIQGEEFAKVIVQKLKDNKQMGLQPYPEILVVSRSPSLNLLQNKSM
# UniProt Q6ZS17: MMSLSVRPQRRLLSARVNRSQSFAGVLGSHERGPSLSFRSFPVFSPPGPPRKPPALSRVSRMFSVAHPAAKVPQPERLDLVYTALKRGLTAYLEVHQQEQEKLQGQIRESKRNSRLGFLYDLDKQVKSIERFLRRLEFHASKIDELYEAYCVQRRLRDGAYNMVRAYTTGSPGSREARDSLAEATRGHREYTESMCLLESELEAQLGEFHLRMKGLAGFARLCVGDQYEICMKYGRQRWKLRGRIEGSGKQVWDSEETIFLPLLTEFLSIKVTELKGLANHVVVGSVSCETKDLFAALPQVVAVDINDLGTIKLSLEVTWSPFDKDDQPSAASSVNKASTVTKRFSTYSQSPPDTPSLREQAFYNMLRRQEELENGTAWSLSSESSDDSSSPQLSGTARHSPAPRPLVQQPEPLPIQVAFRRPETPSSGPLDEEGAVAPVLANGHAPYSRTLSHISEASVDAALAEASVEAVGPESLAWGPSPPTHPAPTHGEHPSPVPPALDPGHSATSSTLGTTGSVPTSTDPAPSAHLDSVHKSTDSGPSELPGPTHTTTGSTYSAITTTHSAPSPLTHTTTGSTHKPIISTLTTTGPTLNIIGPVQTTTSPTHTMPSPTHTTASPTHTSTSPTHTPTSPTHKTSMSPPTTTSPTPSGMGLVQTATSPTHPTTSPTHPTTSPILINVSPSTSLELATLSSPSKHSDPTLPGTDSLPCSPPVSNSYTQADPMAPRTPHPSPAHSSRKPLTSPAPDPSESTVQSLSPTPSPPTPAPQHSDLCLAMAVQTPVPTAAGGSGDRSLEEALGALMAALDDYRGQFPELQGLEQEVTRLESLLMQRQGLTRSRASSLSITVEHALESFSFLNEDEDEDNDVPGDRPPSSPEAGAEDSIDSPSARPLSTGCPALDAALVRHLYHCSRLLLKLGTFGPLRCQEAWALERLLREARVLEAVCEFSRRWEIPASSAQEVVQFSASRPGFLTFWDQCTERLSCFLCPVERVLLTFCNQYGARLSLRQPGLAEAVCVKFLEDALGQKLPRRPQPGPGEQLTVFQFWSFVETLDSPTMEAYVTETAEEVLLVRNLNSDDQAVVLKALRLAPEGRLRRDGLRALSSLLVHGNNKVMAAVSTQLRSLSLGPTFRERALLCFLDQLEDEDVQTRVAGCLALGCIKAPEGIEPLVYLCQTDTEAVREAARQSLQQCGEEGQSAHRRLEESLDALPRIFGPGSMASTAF
# UniProt O94761: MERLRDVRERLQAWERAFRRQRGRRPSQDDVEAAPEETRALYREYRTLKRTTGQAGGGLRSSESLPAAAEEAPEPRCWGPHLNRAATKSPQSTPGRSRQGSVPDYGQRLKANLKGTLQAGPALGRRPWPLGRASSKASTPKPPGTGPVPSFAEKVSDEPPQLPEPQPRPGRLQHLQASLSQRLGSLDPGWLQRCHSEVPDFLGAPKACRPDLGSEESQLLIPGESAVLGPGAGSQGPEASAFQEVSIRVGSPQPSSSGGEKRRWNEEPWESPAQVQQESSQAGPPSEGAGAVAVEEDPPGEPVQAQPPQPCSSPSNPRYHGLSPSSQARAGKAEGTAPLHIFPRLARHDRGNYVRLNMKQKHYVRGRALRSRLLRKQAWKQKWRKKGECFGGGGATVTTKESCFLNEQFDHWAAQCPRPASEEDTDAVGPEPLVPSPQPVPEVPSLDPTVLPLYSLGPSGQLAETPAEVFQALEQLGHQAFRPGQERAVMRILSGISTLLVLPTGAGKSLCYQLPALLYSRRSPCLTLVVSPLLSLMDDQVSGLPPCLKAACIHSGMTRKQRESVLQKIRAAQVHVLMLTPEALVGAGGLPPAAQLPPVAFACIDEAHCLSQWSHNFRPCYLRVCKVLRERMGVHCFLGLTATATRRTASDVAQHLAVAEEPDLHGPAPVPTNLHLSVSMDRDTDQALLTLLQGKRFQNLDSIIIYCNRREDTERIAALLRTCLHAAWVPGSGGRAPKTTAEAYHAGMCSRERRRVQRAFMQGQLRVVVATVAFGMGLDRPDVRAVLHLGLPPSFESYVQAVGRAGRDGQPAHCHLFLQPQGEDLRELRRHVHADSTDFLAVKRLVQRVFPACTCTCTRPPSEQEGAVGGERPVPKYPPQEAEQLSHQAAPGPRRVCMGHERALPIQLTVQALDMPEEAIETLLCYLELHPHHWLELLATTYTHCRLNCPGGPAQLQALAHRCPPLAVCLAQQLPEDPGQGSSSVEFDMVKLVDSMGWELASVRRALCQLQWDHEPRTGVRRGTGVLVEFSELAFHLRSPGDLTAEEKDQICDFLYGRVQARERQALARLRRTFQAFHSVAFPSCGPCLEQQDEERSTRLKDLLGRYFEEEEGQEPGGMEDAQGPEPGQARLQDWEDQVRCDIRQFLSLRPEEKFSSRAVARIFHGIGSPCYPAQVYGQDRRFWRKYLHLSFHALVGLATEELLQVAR
# UniProt O75792: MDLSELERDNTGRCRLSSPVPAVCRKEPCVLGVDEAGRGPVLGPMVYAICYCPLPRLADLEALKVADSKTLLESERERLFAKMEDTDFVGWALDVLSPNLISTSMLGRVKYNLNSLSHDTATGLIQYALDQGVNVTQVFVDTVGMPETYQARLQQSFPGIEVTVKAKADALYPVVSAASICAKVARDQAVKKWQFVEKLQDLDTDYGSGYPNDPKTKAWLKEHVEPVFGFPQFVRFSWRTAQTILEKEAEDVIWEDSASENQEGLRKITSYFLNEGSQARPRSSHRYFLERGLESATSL
# UniProt P84095: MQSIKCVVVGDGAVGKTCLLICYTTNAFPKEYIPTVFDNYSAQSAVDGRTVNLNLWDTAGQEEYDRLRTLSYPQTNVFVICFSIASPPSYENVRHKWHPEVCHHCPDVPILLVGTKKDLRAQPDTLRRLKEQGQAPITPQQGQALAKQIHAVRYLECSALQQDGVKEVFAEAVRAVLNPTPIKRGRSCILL
# UniProt Q9H6W3: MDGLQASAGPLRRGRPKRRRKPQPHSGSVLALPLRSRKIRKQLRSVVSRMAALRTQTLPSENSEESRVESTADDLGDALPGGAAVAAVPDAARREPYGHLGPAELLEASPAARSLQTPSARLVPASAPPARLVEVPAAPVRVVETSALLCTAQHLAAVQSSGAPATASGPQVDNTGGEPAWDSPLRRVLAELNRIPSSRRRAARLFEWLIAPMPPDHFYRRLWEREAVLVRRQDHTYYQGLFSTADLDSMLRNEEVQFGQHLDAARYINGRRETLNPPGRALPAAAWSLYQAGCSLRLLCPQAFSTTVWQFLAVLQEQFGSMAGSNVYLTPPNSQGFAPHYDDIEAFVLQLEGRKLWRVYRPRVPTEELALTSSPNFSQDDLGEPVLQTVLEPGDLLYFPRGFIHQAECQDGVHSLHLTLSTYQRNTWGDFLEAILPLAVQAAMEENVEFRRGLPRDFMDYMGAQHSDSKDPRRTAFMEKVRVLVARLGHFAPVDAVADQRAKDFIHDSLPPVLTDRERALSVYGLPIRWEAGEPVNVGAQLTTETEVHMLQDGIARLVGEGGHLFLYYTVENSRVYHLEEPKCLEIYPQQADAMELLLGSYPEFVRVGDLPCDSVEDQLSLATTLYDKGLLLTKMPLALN
# UniProt P35249, whole entry, looked up: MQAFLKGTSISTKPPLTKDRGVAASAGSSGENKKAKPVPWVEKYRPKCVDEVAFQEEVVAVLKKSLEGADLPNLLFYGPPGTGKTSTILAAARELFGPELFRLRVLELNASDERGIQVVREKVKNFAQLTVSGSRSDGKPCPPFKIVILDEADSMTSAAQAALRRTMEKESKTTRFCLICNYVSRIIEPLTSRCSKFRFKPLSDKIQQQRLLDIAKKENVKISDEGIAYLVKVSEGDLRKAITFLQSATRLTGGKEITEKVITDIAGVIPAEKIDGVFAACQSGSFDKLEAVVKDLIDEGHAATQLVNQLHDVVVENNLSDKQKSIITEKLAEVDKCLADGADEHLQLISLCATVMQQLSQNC
# The list shows a part of the results.
# Compound: CC1Cc2ccccc2N1C(=O)C1CCCN(C1)C(=O)CCl (mixture of isomers) [TRIM25 ligand 11 (diastereomer mixture)]
# Experiment: probe-labelled cysteine peptide fold change vs DMSO (competition) (log2 fold change); higher = less target engagement (more negative = stronger competition)
# Details: THP-1, incubation time: 4 h
# 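Further: competitive chemoproteomic profiling in live THP-1 cells with an iodoacetamide desthiobiotin (IA-DTB) probe, comparing probe-labelled peptide intensities in compound-treated cells against DMSO-treated controls.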
Target,probe-labelled cysteine peptide fold change (10 µM),probe-labelled cysteine peptide fold change (50 µM)
REPS1_Q96D71_344_DGALTLDEFCAAFHLVVAR (UniProt Q96D71),0.0481,0.109
RFC3_P40938_165_LILCCNSTSK (UniProt P40938),-0.0961,0.0194
RLF_Q13129_749_EHEQVHCGPQPYMCVSIDCYAR (UniProt Q13129),-0.161,0.182
RHBDF2_Q6PJF5_500_DSGCCVQNDHSGCIQTQR (UniProt Q6PJF5),0.0324,-0.0623
RGS10_O43665_66_EFSEENVLFWLACEDFK (UniProt O43665),0.13,0.0517
RMND5A_Q9H871_308_QCTGVWNQK (UniProt Q9H871),0.00209,0.0699
RMND1_Q9NWS8_409_LQHCMELTDLMR (UniProt Q9NWS8),-0.043,0.0413
RLF_Q13129_1300_GNLCYILNK (UniProt Q13129),-0.0662,-0.126
RIPK2_O43353_286_CLIELEPVLR (UniProt O43353),0.0249,0.128
RIPOR1_Q6ZS17_945_VLEAVCEFSR (UniProt Q6ZS17),0.0142,0.234
RIC1_Q4ADV7_904_FITEFPLFLQTVVHCAR (UniProt Q4ADV7),0.233,-0.0707
RNASET2_O00584_241_VCEDGPVFYPPPKK (UniProt O00584),-0.14,-0.281
RGP1_Q92546_90_GQCILSTPPK (UniProt Q92546),-0.0252,-0.162
RECQL4_O94761_814_DGQPAHCHLFLQPQGEDLR (UniProt O94761),-0.0554,0.0221
REL_Q04864-2_304_LCQDHVNFPERPRPGLLGSIGEGR (UniProt Q04864),0.119,-0.142
RNASEH2A_O75792_29_EPCVLGVDEAGR (UniProt O75792),-0.197,-0.0543
RNASEH2A_O75792_29_KEPCVLGVDEAGR (UniProt O75792),0.00117,0.0161
RLF_Q13129_808_DASYTCNFLGCK (UniProt Q13129),-0.0307,-0.117
RELCH_Q9P260_497_LSPAFHQALLSFCR (UniProt Q9P260),-0.134,-0.026
RLF_Q13129_1494_VCQTADTQGHEHQTTR (UniProt Q13129),0.0353,-0.00207

# Whole records as entered above.
# RIPK2_O43353_286_CLIELEPVLR (UniProt O43353) in the list: probe-labelled cysteine peptide fold change (10 µM): 0.0249; probe-labelled cysteine peptide fold change (50 µM): 0.128
# RLF_Q13129_1494_VCQTADTQGHEHQTTR (UniProt Q13129) in the list: probe-labelled cysteine peptide fold change (10 µM): 0.0353; probe-labelled cysteine peptide fold change (50 µM): -0.00207

# More entries.

Target,probe-labelled cysteine peptide fold change (10 µM),probe-labelled cysteine peptide fold change (50 µM)
RLF_Q13129_1591_THQMSSAYLEQQMENLVVCVK (UniProt Q13129),-0.0393,0.00406
RHOG_P84095_102_WHPEVCHHCPDVPILLVGTK (UniProt P84095),0.0121,-0.0288
RIOX1_Q9H6W3_294_ALPAAAWSLYQAGCSLR (UniProt Q9H6W3),0.132,0.139
REST_Q13127_945_HQTDSIVCEMK (UniProt Q13127),-0.0339,-0.334
RNASEH2A_O75792_52_GPVLGPMVYAICYCPLPR (UniProt O75792),-0.07,0.0588
REXO2_Q9Y3B8_137_QQTPPGLCPLAGNSVHEDKK (UniProt Q9Y3B8),-0.0253,-0.0731
RFC4_P35249_48_CVDEVAFQEEVVAVLK (UniProt P35249),0.188,-0.0734
RFC4_P35249_281_IDGVFAACQSGSFDKLEAVVK (UniProt P35249),-0.258,-0.149
RIF1_Q5UIP0_2274_CLISEMAK (UniProt Q5UIP0),0.00652,-0.388
RLF_Q13129_948_CSSMAVCFDGTK (UniProt Q13129),-0.158,-0.331
RHOG_P84095_102+105_WHPEVCHHCPDVPILLVGTK (UniProt P84095),0.00764,-0.0445
RIPOR1_Q6ZS17_1191_QSLQQCGEEGQSAHR (UniProt Q6ZS17),0.156,-0.0527
RFK_Q969G6_8_HLPYFCR (UniProt Q969G6),-0.0301,0.03
RECQL4_O94761_1088_TFQAFHSVAFPSCGPCLEQQDEER (UniProt O94761),0.186,-0.324
RMDN3_Q96TC7_288_AYSDMCELTEEVSEKK (UniProt Q96TC7),-0.187,-0.0193
RELA_Q04206_105_DCRDGFYEAELCPDR (UniProt Q04206),-0.206,-0.178
RFFL_Q8WZ73_337_ICMDSPIDCVLLECGHMVTCTK (UniProt Q8WZ73),0.0419,0.00122
RNASEH2C_Q8TDP1_34_DAVPATLHLLPCEVAVDGPAPVGR (UniProt Q8TDP1),-0.134,-0.12
RDH14_Q9HBH5_148_LDVLINNAGIFQCPYMK (UniProt Q9HBH5),0.333,-0.204
